Laboratory results from the supplement of paper PMC4683952.
Counter-ions that a name gives are not always drawn. Among all 1,200 compounds or so, about 50 (4%) showed activity. Cut-off read from the data, not from the text of the source: all actives reach 1.3 or more but so do some inactives. The list shows a part of the results.

These compounds were tested on Lgr5 (MarsCy1-Lgr5-EGFP, U2OS) (assay: cell-surface Lgr5 expression (SCi1 fluorescence, background-subtracted) relative to WT DMSO (fold of DMSO control); higher = more Lgr5 at the plasma membrane, active = hit call of the paper). Details: U2OS MarsCy1-Lgr5-EGFP stable; treatment time: overnight; 16 µM; library: Johns Hopkins Clinical Compound Library.

Q: How did the “cell-surface Lgr5 expression” value turn out when `CC[C@H]1CN2CCc3cc(OC)c(OC)cc3[C@@H]2C[C@@H]1C[C@H]1NCCc2cc(OC)c(OC)cc21` [Emetine] was run?
A: The value was inactive: 0.217.

Q: For `CC[C@H]1[C@@H]2C[C@H]3[C@@H]4N(C)c5ccccc5[C@]45C[C@@H]([C@@H]2[C@H]5O)N3[C@@H]1O` [Ajmaline], which “cell-surface Lgr5 expression” value is on record?
A: The value was inactive: 1.33.

Q: Which “cell-surface Lgr5 expression” value does the source give for `CC1(C)C(C=C(Cl)Cl)C1C(=O)OCc1cccc(Oc2ccccc2)c1` (stereo not drawn) [Permethrin] here?
A: Its value is inactive: 1.15.

Q: How did the “cell-surface Lgr5 expression” value turn out when `COc1ccc2c(c1)[nH]c1c(C)nccc12` [Harmine] was run?
A: Its value is inactive: 0.408.

Q: How did the “cell-surface Lgr5 expression” value turn out when `COc1ccc(C[C@H]2NC[C@H](O)[C@H]2OC(C)=O)cc1` [Anisomycin] was run?
A: The value was inactive: 0.0213.

Q: How did the “cell-surface Lgr5 expression” value turn out when `CCC(COC(=O)c1cc(OC)c(OC)c(OC)c1)(c1ccccc1)N(C)C` (stereo not drawn) [Trimebutine] was run?
A: Its value is inactive: 1.22.

Q: How did the “cell-surface Lgr5 expression” value turn out when `C=C(C)[C@@H]1[C@H]2OC(=O)[C@@H]1[C@]1(O)C[C@H]3OC34C(=O)O[C@H]2[C@@]41C.CC(C)(O)[C@@H]1[C@H]2OC(=O)[C@@H]1[C@]1(O)C[C@H]3OC34C(=O)O[C@H]2[C@@]41C` (stereo partly drawn) [Picrotoxin] was run?
A: The value was inactive: 0.483.

Q: For `CO[C@]12C[C@@H](COC(=O)c3cncc(Br)c3)CN(C)[C@@H]1Cc1cn(C)c3cccc2c13` [Nicergoline], which “cell-surface Lgr5 expression” value is on record?
A: Its value is inactive: 1.14.

Q: With `CC(CC(C(N)=O)(c1ccccc1)c1ccccc1)N(C)C` (stereo not drawn) [Aminopentamide sulfate] as the compound, how does the “cell-surface Lgr5 expression” value read?
A: The value was inactive: 1.18.

Q: With `OC[C@@H](O)[C@H]1O[C@@H]2O[C@H](C(Cl)(Cl)Cl)O[C@@H]2[C@H]1O` [Chloralose (alpha-Chloralose)] as the compound, how does the “cell-surface Lgr5 expression” value read?
A: Its value is inactive: 0.958.

Q: For `C[C@]12Cc3c[nH]nc3C[C@@H]1CC[C@@H]1[C@@H]2CC[C@@]2(C)[C@H]1CC[C@]2(C)O` [Stanozolol], which “cell-surface Lgr5 expression” value is on record?
A: Its value is inactive: 1.03.

Q: For `CCOC(=O)C1(c2ccccc2)CCN(CCC(C#N)(c2ccccc2)c2ccccc2)CC1.CN1C2CCC1CC(OC(=O)C(CO)c1ccccc1)C2` [Diphenoxylate hydrochloride/Atropine sulfate], which “cell-surface Lgr5 expression” value is on record?
A: Its value is inactive: 1.09.

Q: For `CCC(C)(C)O` [Amylene hydrate (tert-Amyl alcohol)], which “cell-surface Lgr5 expression” value is on record?
A: The value was inactive: 1.2.

Q: How did the “cell-surface Lgr5 expression” value turn out when `CC(C)(C)NCC(O)c1ccccc1Cl` (stereo not drawn) [Tulobuterol] was run?
A: The value was active: 1.42.

Q: With `OCC(Br)(Br)Br` [Tribromoethanol (2,2,2-Tribromoethanol)] as the compound, how does the “cell-surface Lgr5 expression” value read?
A: Its value is inactive: 1.25.

Q: For `COc1ccc(CCN2CCC(Nc3nc4ccccc4n3Cc3ccc(F)cc3)CC2)cc1` [Astemizole], which “cell-surface Lgr5 expression” value is on record?
A: The value was inactive: 1.3.

Q: How did the “cell-surface Lgr5 expression” value turn out when `CC1=C2[C@H]3OC(=O)[C@@H](C)[C@@H]3CC[C@@]2(C)C=CC1=O` [Santonin] was run?
A: The value was inactive: 1.25.

Q: How did the “cell-surface Lgr5 expression” value turn out when `NCC(O)c1cccc(O)c1` (stereo not drawn) [Norfenefrine (Norphenylephrine hydrochloride)] was run?
A: The value was inactive: 1.41.

Q: With `O=C(N/N=C/c1ccc([N+](=O)[O-])o1)c1cc([N+](=O)[O-])cc([N+](=O)[O-])c1O` [Nifursol] as the compound, how does the “cell-surface Lgr5 expression” value read?
A: The value was inactive: 1.07.

Q: For `CCN` [Ethylamine], which “cell-surface Lgr5 expression” value is on record?
A: Its value is inactive: 0.974.

Q: Which “cell-surface Lgr5 expression” value does the source give for `CCC(C)(C)C1C(=O)N2CCCC2C2(O)OC(NC(=O)C3CC4c5cccc6[nH]cc(c56)CC4N(C)C3)(C(C)C)C(=O)N12` (stereo not drawn) [Ergoloid mesylate] here?
A: The value was inactive: 0.76.

Q: Which “cell-surface Lgr5 expression” value does the source give for `CNCC(=O)c1ccc(O)c(O)c1` [Adrenalone hydrochloride] here?
A: Its value is inactive: 1.31.

Q: Which “cell-surface Lgr5 expression” value does the source give for `C[N+]1(C)[C@@H]2C[C@@H](OC(=O)[C@H](CO)c3ccccc3)C[C@H]1[C@@H]1O[C@@H]12` [Scopolamine methyl bromide] here?
A: The value was inactive: 1.07.

Q: How did the “cell-surface Lgr5 expression” value turn out when `CCn1cc(C(=O)O)c(=O)c2cc3c(cc21)OCO3` [Oxolinic acid] was run?
A: The value was inactive: 0.903.

Q: Which “cell-surface Lgr5 expression” value does the source give for `CN(C)C(=O)Oc1cc(OC(=O)N(C)C)cc(C(O)CNC(C)(C)C)c1` (stereo not drawn) [Bambuterol] here?
A: Its value is inactive: 1.21.

Q: For `O=[N+]([O-])[O-].[K+]` [Potassium nitrate], which “cell-surface Lgr5 expression” value is on record?
A: The value was inactive: 0.886.

Q: `OCCN(CCO)CCO` [Trolamine (Triethanolamine hydrochloride)] was tested. Which “cell-surface Lgr5 expression” value did it give?
A: Its value is inactive: 0.803.

Q: Which “cell-surface Lgr5 expression” value does the source give for `COc1ccc(O)c(C(C)(C)C)c1.COc1ccc(O)cc1C(C)(C)C` [Butylated hydroxyanisole] here?
A: The value was inactive: 1.15.
